Some of the results follow.
How the values were obtained:
Assay in all cases: log2 fold change, soluble protein after heating vs DMSO (PISA); higher = thermal stabilisation; K562 cells, 10 uM, 30 min; active = over 0.2 and 3.5 SD of the protein, either way, in both replicates (recomputed)
[1] = compound: NC(=O)Nc1cc(-c2cccc(F)c2)sc1C(=O)N[C@H]1CCCNC1
Summary of the method: (§1)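 K562 cells at 2×10^6 cells/mL were treated for 30 min with 10 μM compound, and aliquots were heated for 3 min over 48°C-58°C before pooling. Extraction used PBS with 0.5% NP-40 at 4°C, and soluble protein was the supernatant after 21,000xg for 90 min, measured by TMTpro 16plex LC-MS/MS with channel sums equalised. Thermal stability values, relative to control samples and from duplicates, are log2 fold changes.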

By UniProt entry, the sequences of proteins in these tests, tags left out. Where a name states a change or a piece, a line headed by the entry shows the natural chain unless it says otherwise.
UniProt Q96HC4: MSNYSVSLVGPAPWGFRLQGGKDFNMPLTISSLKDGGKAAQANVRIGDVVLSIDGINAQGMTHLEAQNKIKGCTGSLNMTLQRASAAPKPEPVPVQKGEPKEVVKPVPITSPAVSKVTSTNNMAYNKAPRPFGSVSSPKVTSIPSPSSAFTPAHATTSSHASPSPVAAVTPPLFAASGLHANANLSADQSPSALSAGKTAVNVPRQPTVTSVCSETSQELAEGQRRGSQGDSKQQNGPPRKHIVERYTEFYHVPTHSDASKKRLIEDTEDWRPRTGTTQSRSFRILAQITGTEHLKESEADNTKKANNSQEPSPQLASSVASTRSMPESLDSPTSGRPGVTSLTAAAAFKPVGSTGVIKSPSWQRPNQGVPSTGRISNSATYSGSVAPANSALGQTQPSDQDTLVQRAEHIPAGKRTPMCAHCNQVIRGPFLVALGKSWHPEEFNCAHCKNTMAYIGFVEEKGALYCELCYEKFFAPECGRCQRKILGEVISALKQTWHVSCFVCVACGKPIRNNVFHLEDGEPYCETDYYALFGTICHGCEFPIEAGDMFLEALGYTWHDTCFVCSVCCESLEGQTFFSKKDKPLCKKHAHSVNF
UniProt Q96RD7, whole entry, looked up: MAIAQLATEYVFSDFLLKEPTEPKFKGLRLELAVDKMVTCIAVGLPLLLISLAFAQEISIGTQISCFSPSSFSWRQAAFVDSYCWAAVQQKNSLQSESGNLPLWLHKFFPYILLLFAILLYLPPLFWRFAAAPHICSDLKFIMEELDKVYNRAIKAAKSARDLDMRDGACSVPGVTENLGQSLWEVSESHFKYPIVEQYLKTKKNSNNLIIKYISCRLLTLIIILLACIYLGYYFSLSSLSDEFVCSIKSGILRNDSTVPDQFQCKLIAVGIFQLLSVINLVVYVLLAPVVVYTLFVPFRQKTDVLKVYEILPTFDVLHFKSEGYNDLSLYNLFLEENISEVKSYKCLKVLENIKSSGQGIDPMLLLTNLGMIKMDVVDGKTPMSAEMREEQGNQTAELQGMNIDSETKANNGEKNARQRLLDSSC
UniProt O00764: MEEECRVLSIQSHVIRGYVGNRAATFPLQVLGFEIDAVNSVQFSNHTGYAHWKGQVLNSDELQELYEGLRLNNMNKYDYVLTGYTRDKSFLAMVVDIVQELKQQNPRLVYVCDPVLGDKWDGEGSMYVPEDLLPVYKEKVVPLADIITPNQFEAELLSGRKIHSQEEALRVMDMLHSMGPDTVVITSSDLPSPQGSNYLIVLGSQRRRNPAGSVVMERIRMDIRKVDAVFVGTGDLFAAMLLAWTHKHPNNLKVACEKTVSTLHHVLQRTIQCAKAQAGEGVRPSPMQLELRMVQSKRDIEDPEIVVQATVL
UniProt Q96GD0: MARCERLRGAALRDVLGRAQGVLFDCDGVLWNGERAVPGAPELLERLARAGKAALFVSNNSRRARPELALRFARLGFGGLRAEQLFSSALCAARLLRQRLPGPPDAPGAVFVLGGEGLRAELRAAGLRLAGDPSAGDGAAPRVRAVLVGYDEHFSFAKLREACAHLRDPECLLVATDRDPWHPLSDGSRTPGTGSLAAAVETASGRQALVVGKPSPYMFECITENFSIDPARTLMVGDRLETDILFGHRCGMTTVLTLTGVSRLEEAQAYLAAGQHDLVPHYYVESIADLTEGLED
UniProt Q8NBM8: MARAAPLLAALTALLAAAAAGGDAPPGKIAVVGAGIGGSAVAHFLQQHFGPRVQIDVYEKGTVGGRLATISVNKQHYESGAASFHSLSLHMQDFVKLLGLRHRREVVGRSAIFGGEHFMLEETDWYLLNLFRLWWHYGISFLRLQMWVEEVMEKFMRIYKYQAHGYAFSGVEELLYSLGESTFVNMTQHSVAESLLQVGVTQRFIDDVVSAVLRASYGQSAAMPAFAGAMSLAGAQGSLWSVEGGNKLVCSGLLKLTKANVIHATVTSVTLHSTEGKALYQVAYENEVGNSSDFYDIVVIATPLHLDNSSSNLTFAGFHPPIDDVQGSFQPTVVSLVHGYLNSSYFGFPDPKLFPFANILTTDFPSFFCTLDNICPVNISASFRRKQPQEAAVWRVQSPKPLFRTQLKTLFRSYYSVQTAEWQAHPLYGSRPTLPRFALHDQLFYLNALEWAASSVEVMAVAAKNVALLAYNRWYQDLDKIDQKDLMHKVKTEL
UniProt O00623: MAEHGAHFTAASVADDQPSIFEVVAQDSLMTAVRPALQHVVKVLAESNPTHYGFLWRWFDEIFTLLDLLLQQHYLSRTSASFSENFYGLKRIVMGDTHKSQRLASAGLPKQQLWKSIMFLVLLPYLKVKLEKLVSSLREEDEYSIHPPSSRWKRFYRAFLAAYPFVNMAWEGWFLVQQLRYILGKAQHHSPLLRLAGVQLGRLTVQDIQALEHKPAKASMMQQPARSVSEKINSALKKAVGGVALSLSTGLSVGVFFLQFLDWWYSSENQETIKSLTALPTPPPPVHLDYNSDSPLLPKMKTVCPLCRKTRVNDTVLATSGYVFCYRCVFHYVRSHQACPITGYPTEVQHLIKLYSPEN
UniProt H7BZJ3: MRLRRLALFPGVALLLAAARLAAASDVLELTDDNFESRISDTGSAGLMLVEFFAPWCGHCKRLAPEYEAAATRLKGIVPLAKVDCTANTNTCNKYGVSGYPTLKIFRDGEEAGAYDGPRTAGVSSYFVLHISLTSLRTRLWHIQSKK

[2] = compound: NC(=O)c1cnc(N[C@@H]2CCCC[C@@H]2N)nc1Nc1cccc(-n2nccn2)c1
Summary of the method: as §1

[3] = compound: NC1(c2ccc(-c3nc4ccn5c(=O)[nH]nc5c4cc3-c3ccccc3)cc2)CCC1
Summary of the method: as §1

[4] = compound: NCC(=O)Nc1ccc(-n2nc(C(F)(F)F)cc2-c2ccc3c(ccc4ccccc43)c2)cc1
Summary of the method: as §1

[5] = compound: Nc1ccccc1NC(=O)c1ccc(CNC(=O)OCc2cccnc2)cc1 [entinostat]
Summary of the method: as §1

[6] = compound: O=C(CCCCCCC(=O)Nc1ccccc1)NO [vorinostat]
Summary of the method: as §1

[7] = compound: O=C(CCCCCCNC(=O)c1cnc(N(c2ccccc2)c2ccccc2Cl)nc1)NO [citarinostat]
Summary of the method: as §1

[8] = compound: O=C(O)c1ccc2c(c1)nc(Nc1cccc(Cl)c1)c1ccncc12 [silmitasertib]
Summary of the method: as §1

[9] = compound: O=C1NC(=O)C(c2cnc3ccccn23)=C1c1cn2c3c(cc(F)cc13)CN(C(=O)N1CCCCC1)CC2
Summary of the method: as §1

[10] = compound: c1cc(OCCN2CCCCC2)cc(-c2n[nH]c3ccc(-c4nnc[nH]4)cc23)c1
Summary of the method: as §1

[11] = compound: c1cn2cc(-c3ccc4cn[nH]c4c3)nc(Nc3ccc(N4CCOCC4)cc3)c2n1 [entospletinib]
Summary of the method: as §1

Measured: log2 fold change

PDLIM5 (UniProt Q96HC4)
inactive: [1] -0.008 | [2] -0.063 | [3] 0.015 | [4] -0.028 | [5] 0.007 | [6] 0.011 | [7] 0.043 | [8] 0.015 | [9] -0.003 | [10] -0.048 | [11] -0.032

PANX1 (UniProt Q96RD7)
inactive: [1] 0.051 | [2] 0.011 | [3] 0 | [4] 0.024 | [5] 0.022 | [6] -0.01 | [7] 0.031 | [8] -0.012 | [9] 0.008 | [10] -0.088 | [11] 0.006

PDXK (UniProt O00764)
inactive: [1] 0.027 | [2] 0.01 | [3] 0.026 | [4] 0.091 | [5] -0.038 | [6] 0.02 | [7] 0.042 | [8] -0.007 | [9] 0.05 | [10] -0.054 | [11] 0.027

PDXP (UniProt Q96GD0)
inactive: [1] 0.018 | [2] 0.027 | [3] -0.02 | [4] 0.05 | [5] -0.039 | [6] -0.001 | [7] 0.005 | [8] -0.012 | [9] -0.016 | [10] 0.012 | [11] -0.02

PCYOX1L (UniProt Q8NBM8)
inactive: [1] -0.012 | [2] -0.03 | [3] -0.025 | [4] 0.04 | [5] -0.049 | [6] -0.034 | [7] 0.036 | [8] -0.005 | [9] 0.037 | [10] -0.011 | [11] 0.008

PEX12 (UniProt O00623)
inactive: [1] -0.101 | [2] -0.043 | [3] -0.02 | [4] -0.059 | [5] -0.043 | [6] 0.006 | [8] 0 | [9] -0.022

PDIA3 (UniProt H7BZJ3)
inactive: [1] -0.01 | [2] -0.032 | [3] -0.016 | [4] 0.141 | [5] -0.039 | [6] -0.167 | [7] 0.014 | [8] 0.068 | [9] -0.03 | [10] -0.076 | [11] 0.004

Reference: the supplement of paper PMC10849652
